Reference: paper PMC7083878
These are yes or no findings as the source states them, for the method shown. Binding seen in cells or lysates may run through a third protein. Some entries that bind do so weakly or less than the wild type.

Protein sequences, listed by entry. Tags and fused reporters are not part of them.
UniProt P46937: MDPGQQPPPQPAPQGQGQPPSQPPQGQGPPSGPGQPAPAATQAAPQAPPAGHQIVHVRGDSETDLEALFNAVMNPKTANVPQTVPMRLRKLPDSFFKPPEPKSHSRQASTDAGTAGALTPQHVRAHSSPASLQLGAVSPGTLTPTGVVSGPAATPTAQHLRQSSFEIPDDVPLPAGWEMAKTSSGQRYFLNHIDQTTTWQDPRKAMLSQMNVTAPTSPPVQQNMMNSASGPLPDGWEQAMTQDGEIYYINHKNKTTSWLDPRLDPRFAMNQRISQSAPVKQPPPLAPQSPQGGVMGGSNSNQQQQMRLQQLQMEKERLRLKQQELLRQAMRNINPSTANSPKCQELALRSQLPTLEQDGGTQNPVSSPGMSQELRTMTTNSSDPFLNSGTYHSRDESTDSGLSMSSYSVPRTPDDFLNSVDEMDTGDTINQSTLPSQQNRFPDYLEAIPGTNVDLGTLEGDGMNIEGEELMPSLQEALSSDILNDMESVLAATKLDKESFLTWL

Molecular target: T1, RNF187 (Ring finger 187) (human (endogenous in BT549)) (UniProt Q5TA31)
T1 sequence: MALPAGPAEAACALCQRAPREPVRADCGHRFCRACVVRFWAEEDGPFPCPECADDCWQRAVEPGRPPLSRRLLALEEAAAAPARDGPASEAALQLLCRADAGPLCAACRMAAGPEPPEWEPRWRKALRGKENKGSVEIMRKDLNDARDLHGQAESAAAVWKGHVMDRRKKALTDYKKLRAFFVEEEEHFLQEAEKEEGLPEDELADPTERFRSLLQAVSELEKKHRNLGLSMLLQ
Test: co-IP; endogenous proteins; BT549 total cell lysate (RIPA buffer) pre-cleared with rabbit IgG for 2 h, immunoprecipitated with RNF187 antibody or YAP antibody overnight, rabbit IgG as negative control; blotted with anti-YAP or anti-RNF187

## YAP (from UniProt P46937 1-504)
  binding: binds
